{
  "sequences": {"note": "Chains of the proteins cited; added tags and fusions are not shown. Lines headed by an entry give the natural chain unless they say otherwise; changes in a name come on top.", "UniProt Q9Y2G5": "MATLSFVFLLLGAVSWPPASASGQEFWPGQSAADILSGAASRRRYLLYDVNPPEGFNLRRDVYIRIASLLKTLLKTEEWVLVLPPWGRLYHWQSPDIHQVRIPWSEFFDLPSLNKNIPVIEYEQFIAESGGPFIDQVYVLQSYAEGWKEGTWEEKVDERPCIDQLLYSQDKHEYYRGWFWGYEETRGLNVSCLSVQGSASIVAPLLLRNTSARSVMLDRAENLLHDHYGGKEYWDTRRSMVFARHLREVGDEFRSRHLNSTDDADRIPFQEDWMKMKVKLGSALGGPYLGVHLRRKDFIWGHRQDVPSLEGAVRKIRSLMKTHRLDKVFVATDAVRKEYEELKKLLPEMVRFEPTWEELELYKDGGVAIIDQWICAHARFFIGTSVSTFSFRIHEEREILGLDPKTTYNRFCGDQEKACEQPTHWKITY"},
  "source": "paper PMC5996148",
  "assay_in_all_cases": "protein microarray (ProtoArray v5.0), streptavidin-Alexa Fluor 647",
  "conditions_in_all_cases": "3'-biotin; 20 mM Tris (pH 7.5), 5 mM MgCl2, 100 mM KCl, 0.1% Tween-20, A/T-rich and random oligonucleotide blockers; temperature not stated; high values mean tight binding",
  "key": {"PMP70 (human)": {"test_system": "PMP70 (human)"}, "PNMA1 (human)": {"test_system": "PNMA1 (human)"}, "PNMT": {"biological_target": "T1, PNMT (UniProt P11086)", "T1 sequence": "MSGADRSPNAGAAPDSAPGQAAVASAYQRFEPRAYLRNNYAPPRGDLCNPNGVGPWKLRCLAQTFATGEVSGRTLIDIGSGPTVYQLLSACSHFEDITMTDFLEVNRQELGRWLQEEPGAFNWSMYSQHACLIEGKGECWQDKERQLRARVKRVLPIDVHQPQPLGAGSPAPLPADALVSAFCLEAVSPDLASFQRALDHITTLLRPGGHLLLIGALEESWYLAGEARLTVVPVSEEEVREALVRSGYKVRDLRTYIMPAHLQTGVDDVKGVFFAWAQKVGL"}, "PNPLA2 (human)": {"test_system": "PNPLA2 (human)"}, "PNPLA3 (human)": {"test_system": "PNPLA3 (human)"}, "PNPO (human)": {"test_system": "PNPO (human)"}, "PNPT1 (human)": {"test_system": "PNPT1 (human)"}, "POFUT1 (human)": {"test_system": "POFUT1 (human)"}, "POFUT2": {"biological_target": "POFUT2 (UniProt Q9Y2G5)"}, "POLA2 (human)": {"test_system": "POLA2 (human)"}},
  "note": "The list shows a part of the results. For some of these results: The source does not settle which construct or isoform was used.",
  "data": [
    {"sequence": "GGGAGGCTGAGGCAGG [G4-1 biotinylated (PQS2)]", "values": [
      {"measurement": "binding signal", "setting": "PMP70 (human)", "result": -0.32, "unit": "z-score"},
      {"measurement": "binding signal", "setting": "PNMA1 (human)", "result": -0.338, "unit": "z-score"},
      {"measurement": "binding signal", "setting": "PNMT", "result": -0.31, "unit": "z-score"},
      {"measurement": "binding signal", "setting": "PNPLA2 (human)", "result": -0.309, "unit": "z-score"},
      {"measurement": "binding signal", "setting": "PNPLA3 (human)", "result": -0.291, "unit": "z-score"},
      {"measurement": "binding signal", "setting": "PNPO (human)", "result": -0.319, "unit": "z-score"},
      {"measurement": "binding signal", "setting": "PNPT1 (human)", "result": -0.234, "unit": "z-score"},
      {"measurement": "binding signal", "setting": "POFUT1 (human)", "result": -0.308, "unit": "z-score"},
      {"measurement": "binding signal", "setting": "POFUT2", "result": -0.286, "unit": "z-score"},
      {"measurement": "binding signal", "setting": "POLA2 (human)", "result": -0.337, "unit": "z-score"}
    ]}
  ]
}
